Assay results published in publication doi:10.1101/2020.05.29.123034.
Where two headings read alike, the source gives them in different places. Results are given in words; binding and its absence hold for the method and conditions named. In cells and extracts the contact can be indirect. Some results given as binding are weak or reduced against the parent protein; the word gives no strength. Tags and fused reporters may be left off the sequences shown.

By UniProt entry, the sequences of proteins in these tests, tags left out. Residues count along the entry.
UniProt P62813, residues 28-455: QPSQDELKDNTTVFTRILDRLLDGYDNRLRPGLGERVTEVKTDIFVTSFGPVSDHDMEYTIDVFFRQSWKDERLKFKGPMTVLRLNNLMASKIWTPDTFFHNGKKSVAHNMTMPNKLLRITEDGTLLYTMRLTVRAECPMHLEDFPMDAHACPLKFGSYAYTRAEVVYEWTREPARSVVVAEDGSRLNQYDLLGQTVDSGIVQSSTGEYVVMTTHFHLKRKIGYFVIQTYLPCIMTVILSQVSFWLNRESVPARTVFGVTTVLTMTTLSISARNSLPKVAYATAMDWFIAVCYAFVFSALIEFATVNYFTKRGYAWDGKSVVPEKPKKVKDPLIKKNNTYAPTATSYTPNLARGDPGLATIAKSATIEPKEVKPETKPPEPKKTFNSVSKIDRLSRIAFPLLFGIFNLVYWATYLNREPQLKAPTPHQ
UniProt O60331: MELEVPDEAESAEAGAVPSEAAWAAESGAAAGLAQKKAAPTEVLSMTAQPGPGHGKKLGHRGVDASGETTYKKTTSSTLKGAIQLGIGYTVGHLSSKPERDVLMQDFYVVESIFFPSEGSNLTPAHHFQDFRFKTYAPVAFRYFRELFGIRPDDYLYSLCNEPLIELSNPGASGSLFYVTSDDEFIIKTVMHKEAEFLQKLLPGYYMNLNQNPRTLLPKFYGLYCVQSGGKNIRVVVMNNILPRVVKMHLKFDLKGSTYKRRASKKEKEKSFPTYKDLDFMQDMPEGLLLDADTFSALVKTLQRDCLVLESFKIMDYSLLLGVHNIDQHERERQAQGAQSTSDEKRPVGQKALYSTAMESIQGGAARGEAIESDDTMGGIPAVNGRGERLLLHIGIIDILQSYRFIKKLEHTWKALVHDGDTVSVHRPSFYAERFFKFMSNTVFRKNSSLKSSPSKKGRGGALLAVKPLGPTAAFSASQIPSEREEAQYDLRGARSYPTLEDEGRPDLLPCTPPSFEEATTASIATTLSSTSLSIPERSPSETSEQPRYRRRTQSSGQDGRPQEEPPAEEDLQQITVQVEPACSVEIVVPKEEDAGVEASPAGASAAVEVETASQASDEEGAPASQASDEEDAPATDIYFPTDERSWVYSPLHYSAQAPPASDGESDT

How the values were obtained:
EGFP-MPP2 (mouse) [1] = target: T1, EGFP-MPP2 (mouse) (UniProt Q9WV34); test: co-IP
T1 sequence: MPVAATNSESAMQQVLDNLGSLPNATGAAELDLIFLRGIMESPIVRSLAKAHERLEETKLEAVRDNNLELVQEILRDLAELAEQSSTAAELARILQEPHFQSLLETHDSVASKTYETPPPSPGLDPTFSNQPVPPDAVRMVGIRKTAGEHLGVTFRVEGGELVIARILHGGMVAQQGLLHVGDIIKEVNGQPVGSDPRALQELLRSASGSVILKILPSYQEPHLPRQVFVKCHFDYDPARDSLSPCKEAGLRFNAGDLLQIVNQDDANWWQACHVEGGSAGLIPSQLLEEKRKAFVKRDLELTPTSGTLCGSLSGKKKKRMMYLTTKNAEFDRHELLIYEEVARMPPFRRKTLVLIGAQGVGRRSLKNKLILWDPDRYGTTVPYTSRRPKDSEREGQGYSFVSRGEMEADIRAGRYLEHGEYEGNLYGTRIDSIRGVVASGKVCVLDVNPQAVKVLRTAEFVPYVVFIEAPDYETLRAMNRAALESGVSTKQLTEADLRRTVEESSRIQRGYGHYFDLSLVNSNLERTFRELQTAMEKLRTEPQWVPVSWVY

GST-MPP2-SH3GK (mouse) = target: T2, GST-MPP2-SH3GK (mouse) (UniProt Q9WV34); test: pull-down
T2 sequence: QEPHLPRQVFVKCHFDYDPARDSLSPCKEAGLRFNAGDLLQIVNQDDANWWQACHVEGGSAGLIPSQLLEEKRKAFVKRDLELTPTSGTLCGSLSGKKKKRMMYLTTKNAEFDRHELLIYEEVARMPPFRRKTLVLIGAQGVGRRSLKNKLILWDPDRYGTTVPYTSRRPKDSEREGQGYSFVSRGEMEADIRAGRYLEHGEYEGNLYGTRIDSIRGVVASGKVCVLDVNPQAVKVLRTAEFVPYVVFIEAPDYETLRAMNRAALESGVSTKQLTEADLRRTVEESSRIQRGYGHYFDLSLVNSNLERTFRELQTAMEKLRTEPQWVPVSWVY

[2] = target: Untagged GABAA α1 (rat), overexpressed (rat) (UniProt P62813); test: co-IP
EGFP-MPP2 (mouse) [3] = target: T1, EGFP-MPP2 (mouse); test: co-IP; remark: listed apart in the source
[4] = target: EGFP-tagged Pip5k1c (GFP-PIPK1 gamma 90) (UniProt O60331); test: co-IP

HA-Gnao1 (from UniProt P59215-1 1-354) was tested, and the binding (EGFP-MPP2 (mouse) [1]) was “binds”.

For “FLAG-tagged Ppp3ca (Calcineurin subunit) (from UniProt P63329-1 1-521)”, the binding (EGFP-MPP2 (mouse) [1]) was “binds”.

In the case of “endogenous GABAA α1 from rat brain crude synaptosomes (from UniProt P62813 28-455) (receptor)”, the binding (GST-MPP2-SH3GK (mouse)) is reported as “binds”.

B1: FLAG-tagged MPP2 (full length), in CHL V79 cells (protein, UniProt Q9WV34-1 1-552)
chain: MPVAATNSESAMQQVLDNLGSLPNATGAAELDLIFLRGIMESPIVRSLAKAHERLEETKLEAVRDNNLELVQEILRDLAELAEQSSTAAELARILQEPHFQSLLETHDSVASKTYETPPPSPGLDPTFSNQPVPPDAVRMVGIRKTAGEHLGVTFRVEGGELVIARILHGGMVAQQGLLHVGDIIKEVNGQPVGSDPRALQELLRSASGSVILKILPSYQEPHLPRQVFVKCHFDYDPARDSLSPCKEAGLRFNAGDLLQIVNQDDANWWQACHVEGGSAGLIPSQLLEEKRKAFVKRDLELTPTSGTLCGSLSGKKKKRMMYLTTKNAEFDRHELLIYEEVARMPPFRRKTLVLIGAQGVGRRSLKNKLILWDPDRYGTTVPYTSRRPKDSEREGQGYSFVSRGEMEADIRAGRYLEHGEYEGNLYGTRIDSIRGVVASGKVCVLDVNPQAVKVLRTAEFVPYVVFIEAPDYETLRAMNRAALESGVSTKQLTEADLRRTVEESSRIQRGYGHYFDLSLVNSNLERTFRELQTAMEKLRTEPQWVPVSWVY
B1 was tested, and the binding [2] was “binds”.

B2: FLAG-tagged Arhgef2 (protein, UniProt Q5FVC2 1-985)
chain: MSRIESLTRARIDRSKEQATKTREKEKMKEAKDARYTNGHLFTTISVSGMTMCYACNKSITAKEALICPTCNVTIHNRCKDTLANCTKVKQKQQKAALLRNNTALQSVSLRSKTTTRERPTSAIYPSDSFRQSLLGSRRGLSSLSLAKSVSTTNIAGHFNDESPLGLRQILSQSTDSLNMRNRTLSVESLIDEGVEVFYNELMSDFEMDEKDFEADSWSLAVDSSFLQQHKKEVMKKQDVIYELIQTELHHVRTLKIMTRLFRTGMLEELQMEPEVVQGLFPCVDELSDIHTRFLSQLLERRRQALCPGSTRNFVIHRLGDLLISQFSGSNAEQMRKTYSEFCSRHTKALKLYKELYARDKRFQQFIRKMTRSAVLKRHGVQECILLVTQRITKYPVLINRILQNSHGIEEEYQDLAAALGLVKELLSNVDQDVHELEKEARLQEIYNRMDPRAQTPVPGKGPFGRDELLRRKLIHDGCLLWKTATGRFKDVLLLLMTDVLVFLQEKDQKYIFTSLDKPSVVSLQNLIVRDIANQAKGMFLISSGPPEMYEVHAASRDDRTTWIRVIQQSVRLCPSREDFPLIETEDKAYLRRIKTKLQQKNQALVELLQMNVELFAEMVHFQALKAGFIGMPPPTLPRGLFRLESFESLRGERLLKDALREVEGLKDLLLGPCVDLPLTAREPALPVEADSGSCPGVTANGEARTFNGSIELCRADSDSSQKDRNGNQLRSPQEEALQPLVNLYGLLQGLQAVVVQQERLMEALFPEGPERWEKLSRANSRDGEAGRAAVASVTPEKQATELALLQRQHSLLQEELRRCQRLGEERATEAGSLEARLRESEQARALLEREAEEIRRQLAALGQNEPLPAEAPWARRPLDPRRRSLPAGDALYLSFNPPQPSRGHDRLDLPVTVRSLHRPFDDREAQELGSPEDRLQDSSDPDTCSEEEVSSRLSPPHSPRDFTRMQDIPEETESRDGEPTASES
For B2, the binding (EGFP-MPP2 (mouse) [3]) was “binds”.

B3: FLAG-tagged Farp1 (protein, UniProt F1LYQ8 1-1049)
chain: MGEIEQKPTPASRLGAPENSGISTLERGQKPPPTPSGKLMTVKIQMLDDTQEAFEVPQRAPGKVLFDAVCNHLNLVEGDYFGLEFPDHRKIVVWLDLLKPIVKQIRRPKHVLVKFVVKFFPPDHTQLQEELTRYLFALQVKQDLAQGRLTCNDTSAALLISHIVQSEIGDFDEALDREHLAKNKYVPQQDALEDKIVEFHHSHIGQTPAESDFQLLEVARRLEMYGIRLHPAKDREGTKINLAVANTGILVFQGFTKINAFNWAKVRKLSFKRKRFLIKLRPDVNSSYQDTLEFLMAGRDFCKSFWKICVEHHAFFRLFEEPKPKPKPVLFSRGSSFRFSGRTQKQVLDYVKEGGHKKVQFERKHSKIHSTRSLVSQPTAPNSEVPKQSPQSASLTFGEGTESPSAQSCQQAKETKVCTLEPGPRQSPALSKSPSGSKAADGTAAAAPPEEEDEEEGGKDGIRPSNPQPPQPSTGSLTGSPHLSELSINSQGGAAPANVTLSPNLSPDNKQASPLISPLLNDQACPRTDDEEEGRRKRFPTDKAYYIAKEVSTTERTYLKDLEVIASWFQSTVSKEDSMPEALKSLIFPNFEPLHKFHTNFLKEIEQRLALWEGRSNAHIRGDYQRIGDVMLKNIQGMKHLAAHLWKHSEALEALETSIKGSRRLEHFCRDFELQKVCYLPLNTFLLRPLHRLMHYKQVLERLCKHHPPNHADFRDCRAALAEITEMVAQLHGTMIKMENFQKLHELKKDLIGIDNLVIPGREFIRLGSLSKLSGKGLQQRMFFLFNDVLLYTSRGLTASNQFKVHGQLPLYGMTIEESEEEWGVPHCLTLRGQRQSIIVAASSRSEMEKWLEDIQMAIDLAEKSNGPTPELLASSPPDNKSPDEATAADQESEDDLSASRTSLERQAPHRGNTMVHVCWHRSTSVSMVDFSIAVENQLSGNLLRKFKNSNGWQKLWVVFTNFCLFFYKSHQDSHPLASLPLLGYSLTIPSESENIHKDYVFKLHFKSHVYYFRAESEYTFERWMEVIRSATSSASRAHSLSHKESHLY
B3 was tested, and the binding (EGFP-MPP2 (mouse) [3]) was “binds”.

B4: FLAG-tagged MPP2, in HEK293T cells (protein, UniProt Q9WV34-1 1-552)
chain: MPVAATNSESAMQQVLDNLGSLPNATGAAELDLIFLRGIMESPIVRSLAKAHERLEETKLEAVRDNNLELVQEILRDLAELAEQSSTAAELARILQEPHFQSLLETHDSVASKTYETPPPSPGLDPTFSNQPVPPDAVRMVGIRKTAGEHLGVTFRVEGGELVIARILHGGMVAQQGLLHVGDIIKEVNGQPVGSDPRALQELLRSASGSVILKILPSYQEPHLPRQVFVKCHFDYDPARDSLSPCKEAGLRFNAGDLLQIVNQDDANWWQACHVEGGSAGLIPSQLLEEKRKAFVKRDLELTPTSGTLCGSLSGKKKKRMMYLTTKNAEFDRHELLIYEEVARMPPFRRKTLVLIGAQGVGRRSLKNKLILWDPDRYGTTVPYTSRRPKDSEREGQGYSFVSRGEMEADIRAGRYLEHGEYEGNLYGTRIDSIRGVVASGKVCVLDVNPQAVKVLRTAEFVPYVVFIEAPDYETLRAMNRAALESGVSTKQLTEADLRRTVEESSRIQRGYGHYFDLSLVNSNLERTFRELQTAMEKLRTEPQWVPVSWVY
In the case of B4, the binding [4] is reported as “binds”.
